Source: PubChem BioAssay AID1347076 (National Center for Advancing Translational Sciences (NCATS), 2019)
About 13,000 (3.2%) of roughly 400,000 compounds were called active. This list was built around the results that the source calls inconclusive (neither active nor inactive); the mix of calls is not that of the screen. Calls follow the shape of the dose curve; as a rule, active = well fitted cell-killing curve with a large enough effect; inconclusive = small, poorly fitted or top-dose-only effect, or effect the other way; inactive = flat fitted curve, though single readings scatter. Potencies of inconclusive entries are doubtful fits and often do not repeat.

Experiment: qHTS assay for MDR1-selective chemotherapeutics: Primary screen using the drug-selected MDR subline cells KB-V1; also: nearly all actives have a fitted effect of over 60% in size
Details: KB-V1 MDR cells viability, CellTiter-Glo, 72 h; activity change, negative = cytotoxicity: at 46.1 µM (top of the series)
Procedure, shortened: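 KB-V1 MDR subline cells in DMEM (phenol-red free, 10% FBS) exposed to compounds in qHTS concentration series for 72 h at 37 degrees C. Viability read by CellTiter-Glo luminescence; concentration-effect curves fitted after normalization and correction.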
% is scaled to controls: 0 for no effect and ±100 for the full control effect; potency is read from the fitted curve at half-maximal effect.

SMILES	activity change, negative = cytotoxicity	Potency
COc1ccc(-c2coc3c2c(C)cc2oc(=O)c(CC(=O)O)c(C)c23)cc1	inactive: 4.38%	–
COc1ccc(NC(=O)CN2CCCC(C)C2)c([N+](=O)[O-])c1 (centres undefined)	–	inconclusive: 23.1 µM [cytotoxic, single point]
CCOc1ccc(CN2CCc3nc(N4CCN(c5ccccn5)CC4)ncc3C2)cc1OC	–	inconclusive: 11.6 µM [cytotoxic, partial curve]
Cc1ccc(C(C(=O)NCC2CCCO2)N(C(=O)c2snc(C(N)=O)c2N)c2ccccc2F)o1 (centres undefined)	inactive: -13.7%	–
Cc1cc(NCc2ccccn2)nc2ccccc12	–	inconclusive: 18.4 µM [cytotoxic, single point]
NC(=O)C1CCN(C(=S)NCc2ccc3c(c2)OCO3)CC1	–	inconclusive: 29.1 µM [rising, partial curve, poor fit]
O=C(Nc1ccc(F)cc1F)c1ccccc1NC(=O)C1CC=CCC1C(=O)O (centres undefined)	–	inconclusive: 6.51 µM [rising, partial curve, poor fit]
CCCNc1c(NS(=O)(=O)c2ccc(NC(=O)CC)cc2)c(=O)oc2ccccc12	–	inconclusive: 29.1 µM [rising, single point]
COc1ccc(N(C(=O)c2ccc(C)cc2)S(=O)(=O)c2cccs2)cc1	–	inconclusive: 29.1 µM [cytotoxic, single point]
CC(C)(C)c1csc(NNC(=O)c2ccc(Br)cc2)n1	–	inconclusive: 14.6 µM [cytotoxic, single point]
COc1ccc(C(CC(=O)c2ccccc2)C2CCCCC2=O)cc1 (centres undefined)	–	inconclusive: 9.2 µM [cytotoxic, partial curve]
Cc1ccc(C)c(S(=O)(=O)N2CCN(CC(=O)Nc3sccc3C#N)CC2)c1	–	inconclusive: 7.31 µM [cytotoxic, partial curve]
COc1cc(OC)c(NC(=O)c2cn(C3CCCC3)c(=O)c3c2c2ccccc2n3C)cc1Cl	inactive: 11.5%	–
CC(=O)c1cccc(NC(=O)c2ccc(N(Cc3ccccc3)S(C)(=O)=O)cc2)c1	–	active: 20.6 µM
CC(=O)N1CCN(S(=O)(=O)c2ccc3c(c2)CC(=O)N3)CC1	–	inconclusive: 29.1 µM [rising, single point]
CCCNC(=O)Cn1cnc2sc(C(=O)N3CCCC(C(=O)OCC)C3)c(C)c2c1=O (centres undefined)	inactive: 0.976%	–
CN1CCN(C(=O)Cn2ncc3c4ccccc4n(Cc4ccc(F)cc4)c3c2=O)CC1	inactive: -3.02%	–
C#CC(C)(O)C1CC(CC(=O)O)C1(C)C (centres undefined)	inactive: 13.2%	–
COc1ccccc1C(=O)Nc1ccc(S(=O)(=O)N2CCOCC2)cc1	–	inconclusive: 20.6 µM [cytotoxic, single point]

2 consecutive compounds out of the list so far, for reference:
SMILES	activity change, negative = cytotoxicity	Potency
Cc1cc(NCc2ccccn2)nc2ccccc12	–	inconclusive: 18.4 µM [cytotoxic, single point]
NC(=O)C1CCN(C(=S)NCc2ccc3c(c2)OCO3)CC1	–	inconclusive: 29.1 µM [rising, partial curve, poor fit]
